Taken from: PubChem BioAssay AID1259254 (NCATS, 2017)

Screen: 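Genome-wide screen for genes that prevent DNA re-replication in cancer cells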 (primary screen)
Cell system: human HCT116 colorectal cancer cells
Reagents: single siRNA against human genes
Timing: 3 days
Measurement: 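Imaged Hoechst DNA stain sorts each cell into a cycle phase by DNA amount; per plate, G2 fraction set to 0% for non-targeting and 100% for GMNN siRNA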
Scale: G2 robust z-score: higher = more G2 cells, more excess DNA replication
Hit rule: 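Active siRNAs have a G2 robust z of 5 or more median absolute deviations over the median, which in these data means about 38% or higher of GMNN control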
Shown is a random part of about 59,000 reagents tested. About 1,550 of all reagents (2.6%) were called active. 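G2 share is only a proxy for re-replication; each gene was hit by three separate siRNAs, and active genes were retested.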 Entries without a mark were called inactive. Reagents against one gene are numbered here. Further read-outs or replicates are left out here. Not given: the amount of reagent.

target	reagent	G2 robust z-score
RO60	1	-0.574
RO60	2	-0.258
RO60	3	-0.305
PLPP4	1	0.459
PLPP4	2	2.32
PLPP4	3	-0.681
MAD2L1	1	5.09 (active)
MAD2L1	2	4.35
MAD2L1	3	1.9
PATZ1	1	-0.944
PATZ1	2	0.0964
PATZ1	3	-0.0831
MIR4500HG	1	8.58 (active)
MIR4500HG	2	1.27
MIR4500HG	3	0.0798

Reformatted: entries from further up.
target,reagent,G2 robust z-score
MAD2L1,3,1.9
PATZ1,1,-0.944
PATZ1,2,0.0964
PATZ1,3,-0.0831

Further results follow:
target	reagent	G2 robust z-score
RAP1GAP	1	1.34
RAP1GAP	2	0.407
RAP1GAP	3	-0.924
VPS53	1	-0.946
VPS53	2	1.19
VPS53	3	0.628
PFDN5	1	-0.713
PFDN5	2	2.37
PFDN5	3	0.563
BTNL2	1	2.01
BTNL2	2	-1.05
BTNL2	3	-1.14
SLC7A8	1	1
SLC7A8	2	-1.24
SLC7A8	3	2.45
